The list is a part of this screen's results and no random one: it is rich in T/C values a quarter to a half above the control, in often repeated tests (any T/C) and in doses without a T/C. Other doses and runs of a compound stand elsewhere. T/C: endpoint of the treated group in % of that of the vehicle group. Some entries give survivors of the animals treated and no T/C: the source holds a T/C of zero for them, seemingly a mark for toxic or unscored doses. Some doses without a T/C left all or most animals alive at the check, yet need not have been tolerated: survival well below the control is almost never listed, so the zero probably covers shortened survival too. For some of these results: Survivors were counted at the toxicity check, usually on the fifth day, unless a day is given; later deaths do not show. Schedules are NCI's codes, read here as Q, the interval in days (D) or hours (H), X, the number of doses. Some schedule codes hold Z or #, which are not explained here. For some of these results: Where survival is the endpoint, the PubChem record calls one and a half times the control and up active, and a quarter to a half above the control has no call in these data; cut-offs in other NCI protocols can differ. Some T/C values are followed by the survivors on the day toxicity was checked, most often the fifth; where none is given, no animal had died by that day.
Tests used:
[1] = system: BDF1 mice, L1210 leukemia sc, survival T/C; test: NCI In Vivo Anticancer Drug Screen. Data for tumor model L1210 Leukemia (subcutaneous) in B6D2F1 (BDF1) mice; conditions: higher T/C = longer survival
In short: (§1)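 Tumors were transplanted into mice, the animals were treated with compound, survival or tumor size was then measured, and treated values were divided by vehicle-control values.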

[2] = system: BDF1 mice, L1210 leukemia sc; test: as above; conditions: higher T/C = longer survival
In short: as §1

Q: With `OCC1OC(n2cnc3c(=S)nc[nH]c32)C(O)C1O` (stereo unspecified) as the compound, how does the survivor count ([1]; T/C endpoint: median survival time, dose: 3200.0 mg/kg/injection, schedule: Q01DX001 (ip), vehicle: other) read?
A: The survivor count was 2 of 8.

Q: And the survivor count ([1]; T/C endpoint: median survival time, dose: 3200.0 mg/kg/injection, schedule: Q01DX009 (ip), vehicle: other)?
A: The survivor count was 2 of 8.

Q: What about the survivor count ([1]; T/C endpoint: median survival time, dose: 3200.0 mg/kg/injection, schedule: Q04DX003 (ip), vehicle: other) of the same compound?
A: Its survivor count is 4 of 8.

Q: And the T/C ([2]; T/C endpoint: median survival time, dose: 50.0 mg/kg/injection, schedule: Q03HX024 (sc), vehicle: other)?
A: Its T/C is 144 % of control.

Q: What about the T/C ([2]; T/C endpoint: median survival time, dose: 800.0 mg/kg/injection, schedule: Q01DX001 (ip), vehicle: other) of the same compound?
A: Its T/C is 127 % of control.

Q: And the T/C ([2]; T/C endpoint: median survival time, dose: 800.0 mg/kg/injection, schedule: Q01DX001 (sc), vehicle: other)?
A: The T/C was 127 % of control.

Q: And the T/C ([2]; T/C endpoint: median survival time, dose: 800.0 mg/kg/injection, schedule: Q04DX003 (ip), vehicle: other)?
A: The T/C was 133 % of control.

Q: What about the T/C ([2]; T/C endpoint: median survival time, dose: 800.0 mg/kg/injection, schedule: Q04DX003 (sc), vehicle: other) of the same compound?
A: Its T/C is 127 % of control.

Q: What about the T/C ([2]; T/C endpoint: median survival time, dose: 1600.0 mg/kg/injection, schedule: Q01DX001 (ip), vehicle: other) of the same compound?
A: The T/C was 133 % of control.

Q: And the T/C ([2]; T/C endpoint: median survival time, dose: 1600.0 mg/kg/injection, schedule: Q01DX001 (sc), vehicle: other)?
A: Its T/C is 133 % of control.

Q: What about the T/C ([2]; T/C endpoint: median survival time, dose: 1600.0 mg/kg/injection, schedule: Q04DX003 (ip), vehicle: other) of the same compound?
A: Its T/C is 144 % of control.

Q: What about the T/C ([2]; T/C endpoint: median survival time, dose: 1600.0 mg/kg/injection, schedule: Q04DX003 (sc), vehicle: other) of the same compound?
A: The T/C was 144 % of control.

Q: What about the T/C ([2]; T/C endpoint: median survival time, dose: 3200.0 mg/kg/injection, schedule: Q01DX001 (sc), vehicle: other) of the same compound?
A: The T/C was 133 % of control.

Q: For `CS(=O)(=O)Nc1ccc(Nc2c3ccccc3nc3cc([N+](=O)[O-])ccc23)cc1`, which survivor count ([1]; T/C endpoint: mean survival time, dose: 10.0 mg/kg/injection, schedule: Q01DX009 (ip), vehicle: Klucel (hydroxypropylcellulose) (HPC)) is on record?
A: Its survivor count is 9 of 10.

Q: What about the T/C ([2]; T/C endpoint: mean survival time, dose: 10.0 mg/kg/injection, schedule: Q01DX009 (sc), vehicle: Klucel (hydroxypropylcellulose) (HPC)) of the same compound?
A: The T/C was 140 % of control.

Q: With `COc1cc([C@@H]2c3cc4c(cc3[C@@H](OC3OC5COC(C)OC5C(O)C3O)[C@H]3COC(=O)[C@H]23)OCO4)cc(OC)c1O` (stereo partly specified) as the compound, how does the survivor count ([1]; T/C endpoint: median survival time, dose: 32.0 mg/kg/injection, schedule: Q01DX009 (ip), vehicle: Klucel (hydroxypropylcellulose) (HPC)) read?
A: The survivor count was 8 of 8.

Q: And the T/C ([2]; T/C endpoint: median survival time, dose: 4.0 mg/kg/injection, schedule: Q01DX009 (ip), vehicle: Klucel (hydroxypropylcellulose) (HPC))?
A: The T/C was 140 % of control.

Q: Which results are given for `Nc1ccc(O)cc1`?
A: survivor count ([1]; T/C endpoint: median survival time, dose: 65.0 mg/kg/injection, schedule: Q01DX Z (sc), vehicle: methylcellulose (MC)): 5 of 10; survivor count ([1]; T/C endpoint: median survival time, dose: 108.0 mg/kg/injection, schedule: Q01DX Z (sc), vehicle: methylcellulose (MC)): 4 of 10; survivor count ([1]; T/C endpoint: median survival time, dose: 180.0 mg/kg/injection, schedule: Q01DX Z (sc), vehicle: methylcellulose (MC)): 4 of 10; survivor count ([1]; T/C endpoint: median survival time, dose: 1000.0 mg/kg/injection, schedule: Q01DX Z (sc), vehicle: other): 0 of 10; T/C ([2]; T/C endpoint: median survival time, dose: 360.0 mg/kg/injection, schedule: Q01DX Z (sc), vehicle: other): 133 % of control

Q: How did the survivor count ([1]; T/C endpoint: median survival time, dose: 8.0 mg/kg/injection, schedule: Q01DX009 (ip), vehicle: water) turn out when `CO[C@@]12[C@H](COC(N)=O)C3=C(C(=O)C(C)=C(N)C3=O)N1C[C@@H]1N[C@@H]12` was run?
A: Its survivor count is 10 of 10.

Q: What about the survivor count ([1]; T/C endpoint: median survival time, dose: 8.0 mg/kg/injection, schedule: Q01DX009 (sc), vehicle: water) of the same compound?
A: Its survivor count is 10 of 10.

Q: What about the survivor count ([1]; T/C endpoint: median survival time, dose: 16.0 mg/kg/injection, schedule: Q01DX009 (ip), vehicle: water) of the same compound?
A: Its survivor count is 9 of 10.

Q: And the survivor count ([1]; T/C endpoint: median survival time, dose: 16.0 mg/kg/injection, schedule: Q01DX009 (sc), vehicle: water)?
A: Its survivor count is 10 of 10.

Q: And the T/C ([2]; T/C endpoint: median survival time, dose: 3.64 mg/kg/injection, schedule: Q01DX Z (sc), vehicle: saline)?
A: Its T/C is 129 % of control.

Q: What about the T/C ([2]; T/C endpoint: median survival time, dose: 5.0 mg/kg/injection, schedule: Q01DX Z (sc), vehicle: saline) of the same compound?
A: The T/C was 127 % of control.

Q: And the T/C ([2]; T/C endpoint: median survival time, dose: 8.4 mg/kg/injection, schedule: Q02DX Z (sc), vehicle: saline)?
A: The T/C was 136 % of control.

Q: What about the T/C ([2]; T/C endpoint: median survival time, dose: 14.0 mg/kg/injection, schedule: Q01DX001 (sc), vehicle: saline) of the same compound?
A: The T/C was 127 % of control.

Q: And the T/C ([2]; T/C endpoint: median survival time, dose: 14.0 mg/kg/injection, schedule: Q## X Z (sc), vehicle: saline)?
A: Its T/C is 136 % of control [9 of 10 alive].

From PubChem BioAssay AID250 (DTP/NCI, 2004)
